Assay results published in paper doi:10.1101/683441.

Target: GST-tagged Nedd4-2 WW3+WW4 (474-595 aa) (mouse)
Test: pull-down

binding: binds
B1: HA-tagged Kir4.1 (inwardly rectifying K+ channel 4.1) (protein, UniProt Q9JM63 1-379)
chain: MTSVAKVYYSQTTQTESRPLVAPGIRRRRVLTKDGRSNVRMEHIADKRFLYLKDLWTTFIDMQWRYKLLLFSATFAGTWFLFGVVWYLVAVAHGDLLELGPPANHTPCVVQVHTLTGAFLFSLESQTTIGYGFRYISEECPLAIVLLIAQLVLTTILEIFITGTFLAKIARPKKRAETIRFSQHAVVASHNGKPCLMIRVANMRKSLLIGCQVTGKLLQTHQTKEGENIRLNQVNVTFQVDTASDSPFLILPLTFYHVVDETSPLKDLPLRSGEGDFELVLILSGTVESTSATCQVRTSYLPEEILWGYEFTPAISLSASGKYIADFSLFDQVVKVASPSGLRDSTVRYGDPEKLKLEESLREQAEKEGSALSVRISNV

These are yes or no findings as the source states them, for the method shown. In cells and extracts the contact can be indirect. Binding calls can cover weak binding; strength is not graded here. Where a sequence is shown, tags or fusion partners need not be part of it.
